Results published in the odorant receptor screen of Mainland et al. (2015).
Values joined by “and” are separate entries in the source; they are usually repeats but may differ in a detail not shown here. Equal entries are not always repeated. Some of the results follow. Each value is one well over the wells without odorant, computed here; the data are noisy.

Columns and labels:
Experiment in all cases: odorant receptor activation (CRE luciferase / Renilla) (fold of no-odor wells); higher = more activation
Details in all cases: 100 µM
OR5C1 clone 1425 = tested on: OR5C1 clone 1425
OR5D14 clone 1230 = tested on: OR5D14 clone 1230
OR5D18 N136D clone 1203 = tested on: OR5D18 N136D clone 1203
OR5F1 S294N clone 1148 = tested on: OR5F1 S294N clone 1148
[1] = tested on: OR5H1 I153L/T181I clone 1473
OR5H1 clone 1471 = tested on: OR5H1 clone 1471
[2] = tested on: OR5H14 G64R/Y189C clone 1472
[3] = tested on: OR5H2 E11Q/I225V/I281V clone 1466
OR5H2 clone 1055 = tested on: OR5H2 clone 1055
OR5H6 clone 1056 = tested on: OR5H6 clone 1056

| Structure (SMILES) | odorant receptor activation (OR5C1 clone 1425) | odorant receptor activation (OR5D14 clone 1230) | odorant receptor activation (OR5D18 N136D clone 1203) | odorant receptor activation (OR5F1 S294N clone 1148) | odorant receptor activation [1] | odorant receptor activation (OR5H1 clone 1471) | odorant receptor activation [2] | odorant receptor activation [3] | odorant receptor activation (OR5H2 clone 1055) | odorant receptor activation (OR5H6 clone 1056) |
| --- | --- | --- | --- | --- | --- | --- | --- | --- | --- | --- |
| CCCCO [1-butanol] | 0.903 | 1.15 | 0.701 | 1.3 | 1.1 | 1.17 | 1.07 | 1.21 | 3.14 | 3.57 |
| CCCCCCCCCCC=O [undecanal] | 0.963 | 0.866 | 1.13 | 1.02 | 1.04 | 1.2 | 1.19 | 0.923 | 1.46 | 1.08 |
| C=CCc1ccc(OC)c(OC)c1 [eugenol methyl ether] | 1.1 | 1.58 | 1.51 | 1.51 | 1.23 | 1.48 | 1.38 | 1.34 | 1.94 | 1.88 |
| c1cnccn1 [pyrazine] | 1.18 | 0.948 | 0.949 | 1.11 | 0.834 | 1.09 | 0.753 | 0.85 | 1.05 | 0.836 |
| COc1cc(C)ccc1O [2-methoxy-4-methylphenol] | 0.697 | 1.21 | 1.28 | 1.44 | 0.821 | 0.831 | 1.08 | 0.847 | 1.78 | 1.97 |
| CC=Cc1ccc(O)c(OC)c1 [isoeugenol] | 1.25 | 1.21 | 1.03 | 1.36 | 0.954 and 2.2 | 0.975 and 1.87 | 0.913 and 1.92 | 1.09 and 2.88 | 1.02 | 2.22 |
| CC12CCC(C1)C(C)(C)C2=O (stereo not given) [fenchone] | 1.16 | 1.1 | 0.957 | 0.894 | 0.995 | 1.13 | 1.14 | 1.08 | 1.01 | 1.17 |
| C=CCc1ccc(OC(C)=O)c(OC)c1 [eugenol acetate] | 1.21 | 1.77 | 2.06 | 2.1 | 1.5 | 2.05 | 1.85 | 1.53 | 2.29 | 1.76 |
| O=CCc1ccccc1 [phenyl acetaldehyde] | 1.23 | 1.08 | 0.941 | 1.34 | 1.34 | 1.65 | 1.16 | 1.38 | 1.18 | 1.27 |
| CC(C)=CCCC(C)=CC=O [citral] | 0.391 | 1.13 | 1.09 | 1.18 | 0.822 | 1.18 | 1.07 | 1.08 | 1.37 | 1.27 |
| O=C1CCCCCCCCCCCCCCO1 [pentadecalactone] | 1.46 | 0.88 | 0.788 | 0.907 | 0.895 | 1.06 | 0.919 | 0.774 | 0.968 | 0.817 |
| CC(=O)C(C)=O [diacetyl] | 0.832 | 1.12 | 1.06 | 1.21 | 1.02 | 1.15 | 1.48 | 1.47 | 0.994 | 1.39 |
| CCCC(=O)O [butyric acid] | 0.439 | 1.32 | 0.912 | 1.04 | 0.884 | 1.35 | 1.12 | 1.06 | 1.55 | 1.16 |
| O=C1CCCCCCCCCCCC(=O)OCCO1 [ethylene brassylate] | 1.29 | 2.14 | 2 | 1.63 | 1.33 | 1.62 | 1.94 | 2.21 | 1.41 | 1.48 |
| CC(=O)OCC=C(C)CCC=C(C)C [geranyl acetate] | 0.959 | 1.17 | 0.973 | 1.52 | 1.02 and 1.39 | 0.762 and 1.41 | 0.766 and 1.32 | 0.869 and 1.53 | 1.46 | 1.61 |
| CCC1(O)C2(C)CCC(C2)C1(C)C (stereo not given) [2-ethylfenchol] | 0.865 | 1.17 | 1.05 | 1.58 | 1.15 | 1.33 | 1.43 | 1.17 | 2.79 | 3.13 |
| CC(=O)OC(C)(C)C1CC=C(C)CC1 (stereo not given) [terpinyl acetate] | 1.17 | 1.12 | 1.36 | 1.26 | 1.16 | 1.19 | 1.05 | 0.916 | 2.15 | 1.54 |
| C=CC(C)(O)CCC=C(C)C (stereo not given) [linalool] | 0.979 | 1.03 | 1.2 | 0.949 | 0.922 | 1.15 | 0.908 | 1.03 | 1.14 | 1.23 |
| CCCCCC(=O)O [caproic acid] | 0.308 | 1.08 | 0.835 | 1 | 0.884 | 0.866 | 0.854 | 0.799 | 1.08 | 0.947 |
| COC(=O)c1ccccc1O [methyl salicylate] | 0.72 | 0.822 | 0.899 | 0.783 | 0.889 | 1.04 | 0.928 | 0.981 | 1.11 | 1.01 |
| CC(C)C=O [isobutyraldehyde] | 0.715 | 1.2 | 1 | 1.16 | 0.95 and 1.08 | 0.816 and 0.932 | 0.958 and 0.959 | 0.977 and 0.957 | 0.842 | 1.07 |
| CC(=O)OC1CC2CCC1(C)C2(C)C (stereo not given) [isobornyl acetate] | 1.07 | 1.2 | 1.15 | 1.13 | 0.956 and 1.1 | 0.664 and 1.06 | 0.854 and 1.08 | 0.952 and 1.31 | 0.803 | 1.06 |
| CC1CCC(C(C)C)C(O)C1 (single isomer, unassigned; (+)) [(+)-menthol] | 0.847 | 1.63 | 0.899 | 1.38 | 0.898 | 1.18 | 0.998 | 1.11 | 2.9 | 3.03 |
| COc1ccccc1O [guaiacol] | 0.722 | 1.01 | 0.894 | 1.04 | 0.835 and 1.18 | 0.594 and 1.15 | 0.889 and 0.984 | 1.14 and 1.05 | 1.19 | 1.64 |
| COc1cc(C=O)ccc1O [vanillin] | 0.893 | 1.08 | 1.04 | 1.05 | 0.988 | 0.976 | 0.944 | 0.844 | 1.24 | 1.02 |
| C=C(C)C1CC=C(C)C(=O)C1 (stereo not given) [r-carvone] | 1.36 | 1.19 | 1.05 | 1.02 | 0.995 | 1.03 | 0.932 | 0.785 | 1.21 | 0.983 |
| CCCCCCCCOC(C)=O [octyl acetate] | 0.779 | 1.15 | 1.1 | 1.01 | 0.847 | 1.14 | 0.97 | 0.888 | 1.04 | 1.03 |

Gathered by group: the compounds so far containing a COOH group (2)

| Structure (SMILES) | odorant receptor activation (OR5C1 clone 1425) | odorant receptor activation (OR5D14 clone 1230) | odorant receptor activation (OR5D18 N136D clone 1203) | odorant receptor activation (OR5F1 S294N clone 1148) | odorant receptor activation [1] | odorant receptor activation (OR5H1 clone 1471) | odorant receptor activation [2] | odorant receptor activation [3] | odorant receptor activation (OR5H2 clone 1055) | odorant receptor activation (OR5H6 clone 1056) |
| --- | --- | --- | --- | --- | --- | --- | --- | --- | --- | --- |
| CCCC(=O)O [butyric acid] | 0.439 | 1.32 | 0.912 | 1.04 | 0.884 | 1.35 | 1.12 | 1.06 | 1.55 | 1.16 |
| CCCCCC(=O)O [caproic acid] | 0.308 | 1.08 | 0.835 | 1 | 0.884 | 0.866 | 0.854 | 0.799 | 1.08 | 0.947 |
